No constants are given. Whether binding was seen depends on the method and setting. Binding seen in cells or lysates may run through a third protein. Some binding calls cover weakened binding; strength is not graded here.
Molecular target: Sphingosine-1-phosphate receptor-1 (mouse (endogenous in SVEC4-10)) (UniProt O08530)
Assay: co-IP; SVEC4-10 lysate in modified RIPA buffer; anti-S1PR1 (1:100) or normal IgG overnight, Protein A/G beads; immunoblot

By UniProt entry, the sequences of proteins in these tests, tags left out.
UniProt O08530: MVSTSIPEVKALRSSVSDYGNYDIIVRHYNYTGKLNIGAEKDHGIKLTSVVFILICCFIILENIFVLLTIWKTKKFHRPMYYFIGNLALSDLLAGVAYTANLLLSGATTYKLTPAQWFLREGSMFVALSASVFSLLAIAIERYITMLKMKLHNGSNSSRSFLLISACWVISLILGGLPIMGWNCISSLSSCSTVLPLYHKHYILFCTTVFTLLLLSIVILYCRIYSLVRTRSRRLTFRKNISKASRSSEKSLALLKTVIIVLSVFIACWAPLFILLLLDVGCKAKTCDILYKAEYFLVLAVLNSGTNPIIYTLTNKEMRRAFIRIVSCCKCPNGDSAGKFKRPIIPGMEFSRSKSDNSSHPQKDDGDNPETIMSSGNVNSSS

B1: lymphatic vessel endothelial hyaluronan receptor 1 (receptor, UniProt Q8BHC0 24-318)
chain: ADLVQDLSISTCRIMGVALVGRNKNPQMNFTEANEACKMLGLTLASRDQVESAQKSGFETCSYGWVGEQFSVIPRIFSNPRCGKNGKGVLIWNAPSSQKFKAYCHNSSDTWVNSCIPEIVTTFYPVLDTQTPATEFSVSSSAYLASSPDSTTPVSATTRAPPLTSMARKTKKICITEVYTEPITMATETEAFVASGAAFKNEAAGFGGVPTALLVLALLFFGAAAVLAVCYVKRYVKAFPFTTKNQQKEMIETKVVKEEKADDVNANEESKKTIKNPEEAKSPPKTTVRCLEAEV
B1 was tested, and the binding was “binds”.
